Test results from US12358863B2, “Nitrogen-containing derivative of substituted phenol hydroxy acid ester, and preparation and use thereof” (priority 2019, dated 2025).
Read-outs that look alike come from different tables or passages of the source.

Tested on: Kunming mice
Type: in vivo, mouse
Details: for Intake of (R)-2-cyclopropylethyl-6-isopropylphenol: Table 4
Description: For each drug, 10 male Kunming mice weighing 20-35 g were included, and the dose of each drug was 2×ED50 in mice. After the compound of the present invention and fospropofol were respectively dissolved in saline, the resultant solutions were injected via the mouse tail vein. For propofol, a glucose dilution (5 mg/mL) of a commercially available emulsion of diprivan was selected and injected via the mouse tail vein; while, for another substituted phenol molecule (CAS:1637741-58-2), its 30% fat emulsion was prepared as a medicated emulsion. The concentration of the injectable solution of the compound according to the present invention was 10-15 mg/mL, and the concentration of the injectable solution of fospropofol was 55 mg/mL, while the concentration of the injectable solution of another substituted phenol molecule (CAS:1637741-58-2) was 1 mg/mL. After injection of tested drug, the occurrence time T1 of righting reflex after its disappearance, the duration T2 for the disappearance of righting reflex (i.e. anesthesia time) and the time T3 required for the animal to recover completely after waking up were recorded. Complete recovery refers to the recovery of autonomous activities of animals to the level before administration. In the experiment, animals were not given respiratory support such as oxygen inhalation or intubation.

[1] = Table 3, at dose 2×ED50, tail vein injection, male Kunming mice
[2] = at dose 2×ED50, tail vein injection, male Kunming mice

Structure (SMILES)	Propofol intake (mouse, in vivo) [mg/kg]	Propofol intake [1] [mg/kg]	further results
CC(C)c1cccc(C(C)C)c1OC(=O)COC(=O)CN1CCN(C)CC1 [Compound 7]	28.4	–	–
CC(C)c1cccc(C(C)C)c1OC(=O)COC(=O)CN1CCCC1.Cl [Compound 42]	–	24.8	–
CC(C)c1cccc(C(C)C)c1OC(=O)COC(=O)CN(C)C [Compound 3]	24.4	–	–
CC(C)c1cccc([C@H](C)C2CC2)c1OC(=O)COC(=O)CN1CCOCC1.Cl [Compound 17]	–	–	Intake of (R)-2-cyclopropylethyl-6-isopropylphenol [2]: 3.2 mg/kg
CC(C)c1cccc(C(C)C)c1OC(=O)COC(=O)CN1CCOCC1 [Compound 22]	26	–	–
CC(C)c1cccc(C(C)C)c1OC(=O)COC(=O)[C@@H](C)N(C)C.Cl [Compound 41]	–	24.3	–
CC(C)c1cccc(C(C)C)c1OC(=O)COC(=O)[C@H](C)N [Compound 4]	–	25	–
CC(C)c1cccc([C@H](C)C2CC2)c1OC(=O)COC(=O)CN1CCCCC1.Cl [Compound 53]	–	–	Intake of (R)-2-cyclopropylethyl-6-isopropylphenol [2]: 3.4 mg/kg
CC(C)c1cccc(C(C)C)c1OCOP(=O)(O)O [Fospropofol, fospropofol, reference compound]	–	90	–
CC(C)c1cccc([C@H](C)C2CC2)c1O [(R)-2-cyclopropylethyl-6-isopropylphenol, reference compound]	–	–	Intake of (R)-2-cyclopropylethyl-6-isopropylphenol [2]: 3.2 mg/kg
CC(C)c1cccc(C(C)C)c1OC(=O)COC(=O)CN1CCOCC1 [Compound 23]	–	27.3	–
CC(C)c1cccc(C(C)C)c1OC(=O)COC(=O)CN [Compound 1]	27	–	–
CC(C)c1cccc(C(C)C)c1OC(=O)COC(=O)CN1CCOCC1 [Compound 27]	–	24.6	–
CNCC(=O)OCC(=O)Oc1c(C(C)C)cccc1C(C)C [Compound 2]	28	–	–
CC(C)c1cccc(C(C)C)c1OC(=O)COC(=O)CN1CCCCC1 [Compound 29]	26.2	–	–
CC(C)c1cccc(C(C)C)c1OC(=O)COC(=O)CN1CCC1.Cl [Compound 37]	–	23.7	–
CC(C)C[C@@H](N)C(=O)OCC(=O)Oc1c(C(C)C)cccc1C(C)C.Cl [Compound 48]	–	27.4	–
CC(C)c1cccc([C@@H](C)C2CC2)c1OC(=O)COC(=O)CN1CCCC1.Cl [Compound 55]	–	–	Intake of (R)-2-cyclopropylethyl-6-isopropylphenol [2]: 3.5 mg/kg
CC(C)c1cccc(C(C)C)c1O [Propofol, reference compound]	25	–	–
CC(C)c1cccc([C@H](C)C2CC2)c1OC(=O)COC(=O)CN1CCOCC1 [Compound 19]	–	–	Intake of (R)-2-cyclopropylethyl-6-isopropylphenol [2]: 3.3 mg/kg
